Experimental data taken from publication PMC10830483.
These are yes or no findings as the source states them, for the method shown. In cells and extracts the contact can be indirect. Some binding calls cover weakened binding; strength is not graded here. One block for each molecule: values may come before it.

Chains of the proteins cited; added tags and fusions are not shown.
UniProt Q9UBL3: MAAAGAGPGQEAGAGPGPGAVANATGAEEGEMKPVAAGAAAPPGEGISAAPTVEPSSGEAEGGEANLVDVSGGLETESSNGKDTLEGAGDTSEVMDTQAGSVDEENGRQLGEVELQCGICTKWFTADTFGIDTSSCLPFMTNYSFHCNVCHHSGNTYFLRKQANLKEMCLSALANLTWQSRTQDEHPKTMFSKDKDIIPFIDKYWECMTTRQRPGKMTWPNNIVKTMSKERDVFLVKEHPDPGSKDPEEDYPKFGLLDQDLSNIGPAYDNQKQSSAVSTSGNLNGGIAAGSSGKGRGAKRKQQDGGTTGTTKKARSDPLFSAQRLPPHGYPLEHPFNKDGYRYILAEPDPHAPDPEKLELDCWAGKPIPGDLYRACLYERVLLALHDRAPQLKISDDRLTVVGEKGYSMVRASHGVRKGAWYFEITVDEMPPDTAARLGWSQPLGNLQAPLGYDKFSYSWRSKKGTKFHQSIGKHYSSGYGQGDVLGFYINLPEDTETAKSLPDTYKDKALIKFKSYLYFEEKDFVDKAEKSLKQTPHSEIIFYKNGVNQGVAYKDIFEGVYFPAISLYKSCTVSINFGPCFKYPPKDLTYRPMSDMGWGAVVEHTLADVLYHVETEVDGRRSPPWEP
UniProt Q91X20: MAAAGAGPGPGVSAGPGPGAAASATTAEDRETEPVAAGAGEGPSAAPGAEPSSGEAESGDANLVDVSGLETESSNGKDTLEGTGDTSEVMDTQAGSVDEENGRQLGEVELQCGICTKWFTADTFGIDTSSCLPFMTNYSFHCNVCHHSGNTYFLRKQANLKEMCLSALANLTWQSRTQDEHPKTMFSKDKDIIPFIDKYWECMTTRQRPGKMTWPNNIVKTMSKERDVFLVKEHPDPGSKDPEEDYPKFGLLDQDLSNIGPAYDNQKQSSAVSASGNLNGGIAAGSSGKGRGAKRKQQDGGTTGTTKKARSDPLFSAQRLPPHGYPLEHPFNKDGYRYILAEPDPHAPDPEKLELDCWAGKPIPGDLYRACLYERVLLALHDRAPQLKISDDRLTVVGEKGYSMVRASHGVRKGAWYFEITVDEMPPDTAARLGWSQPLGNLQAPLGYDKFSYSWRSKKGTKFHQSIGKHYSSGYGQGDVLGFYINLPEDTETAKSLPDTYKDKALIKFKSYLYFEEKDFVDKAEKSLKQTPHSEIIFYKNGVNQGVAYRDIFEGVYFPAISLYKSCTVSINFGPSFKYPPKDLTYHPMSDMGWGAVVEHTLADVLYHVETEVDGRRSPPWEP
UniProt Q15291: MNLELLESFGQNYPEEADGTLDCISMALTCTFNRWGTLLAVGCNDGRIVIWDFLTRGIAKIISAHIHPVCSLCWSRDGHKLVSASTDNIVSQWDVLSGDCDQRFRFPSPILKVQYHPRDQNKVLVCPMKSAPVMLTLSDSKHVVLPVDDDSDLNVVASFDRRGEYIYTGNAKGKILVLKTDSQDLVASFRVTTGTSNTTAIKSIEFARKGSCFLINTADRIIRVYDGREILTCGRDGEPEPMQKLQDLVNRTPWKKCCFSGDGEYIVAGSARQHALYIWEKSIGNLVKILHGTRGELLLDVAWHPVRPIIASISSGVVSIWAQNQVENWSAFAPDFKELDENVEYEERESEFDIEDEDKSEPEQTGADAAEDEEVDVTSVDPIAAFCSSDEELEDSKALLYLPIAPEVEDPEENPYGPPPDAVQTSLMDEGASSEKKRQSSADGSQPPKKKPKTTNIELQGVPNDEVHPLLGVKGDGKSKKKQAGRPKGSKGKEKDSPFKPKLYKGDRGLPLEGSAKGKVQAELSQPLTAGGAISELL
UniProt Q8BX09: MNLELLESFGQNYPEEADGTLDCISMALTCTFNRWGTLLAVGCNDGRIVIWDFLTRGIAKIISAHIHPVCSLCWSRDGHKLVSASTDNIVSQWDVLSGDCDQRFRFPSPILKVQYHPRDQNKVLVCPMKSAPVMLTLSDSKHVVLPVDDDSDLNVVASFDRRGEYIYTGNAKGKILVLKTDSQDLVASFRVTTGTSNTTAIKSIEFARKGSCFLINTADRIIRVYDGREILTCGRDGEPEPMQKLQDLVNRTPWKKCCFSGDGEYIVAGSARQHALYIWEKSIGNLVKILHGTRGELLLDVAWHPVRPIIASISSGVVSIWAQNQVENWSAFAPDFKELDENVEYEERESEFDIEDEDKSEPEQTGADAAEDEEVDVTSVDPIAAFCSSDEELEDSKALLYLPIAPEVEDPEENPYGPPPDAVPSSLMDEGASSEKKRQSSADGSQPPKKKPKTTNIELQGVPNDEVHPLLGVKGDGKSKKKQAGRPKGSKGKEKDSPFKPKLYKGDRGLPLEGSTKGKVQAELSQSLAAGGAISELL

Legend:
[1] = molecular target: T1, Hepatocyte nuclear factor 4A (HNF4A), overexpressed in HEK293T cells (mouse) (UniProt P49698); test: co-IP; lysate of HEK293T cells overexpressing HNF4A; CHAPS buffer, antibody overnight at 4 °C, protein A/G beads; western blot
T1 sequence: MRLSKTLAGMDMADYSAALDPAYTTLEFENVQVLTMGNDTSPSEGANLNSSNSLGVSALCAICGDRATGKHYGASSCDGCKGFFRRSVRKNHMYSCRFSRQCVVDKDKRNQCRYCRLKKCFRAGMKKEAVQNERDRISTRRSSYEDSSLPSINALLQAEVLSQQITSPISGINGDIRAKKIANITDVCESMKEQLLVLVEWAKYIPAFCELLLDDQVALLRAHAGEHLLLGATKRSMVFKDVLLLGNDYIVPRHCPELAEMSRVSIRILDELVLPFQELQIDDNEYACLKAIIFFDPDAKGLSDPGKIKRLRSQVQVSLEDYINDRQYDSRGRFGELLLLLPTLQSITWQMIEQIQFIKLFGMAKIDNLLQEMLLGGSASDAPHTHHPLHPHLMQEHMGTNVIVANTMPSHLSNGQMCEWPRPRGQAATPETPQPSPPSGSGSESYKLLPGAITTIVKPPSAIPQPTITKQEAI

[2] = molecular target: T1, Hepatocyte nuclear factor 4A (HNF4A), overexpressed in HEK293T cells (mouse); test: proximity ligation; in situ PLA (Duolink) in fixed (4% paraformaldehyde), permeabilised HEK293T cells ectopically expressing HNF4A
[3] = molecular target: T2, Hepatocyte nuclear factor 4A (HNF4A), mouse, ectopically expressed in NIH 3T3 cells (mouse) (UniProt P49698); test: proximity ligation; in situ PLA (Duolink) in fixed (4% paraformaldehyde), permeabilised NIH 3T3 cells ectopically expressing HNF4A; control cells and single-antibody negative controls
T2 sequence: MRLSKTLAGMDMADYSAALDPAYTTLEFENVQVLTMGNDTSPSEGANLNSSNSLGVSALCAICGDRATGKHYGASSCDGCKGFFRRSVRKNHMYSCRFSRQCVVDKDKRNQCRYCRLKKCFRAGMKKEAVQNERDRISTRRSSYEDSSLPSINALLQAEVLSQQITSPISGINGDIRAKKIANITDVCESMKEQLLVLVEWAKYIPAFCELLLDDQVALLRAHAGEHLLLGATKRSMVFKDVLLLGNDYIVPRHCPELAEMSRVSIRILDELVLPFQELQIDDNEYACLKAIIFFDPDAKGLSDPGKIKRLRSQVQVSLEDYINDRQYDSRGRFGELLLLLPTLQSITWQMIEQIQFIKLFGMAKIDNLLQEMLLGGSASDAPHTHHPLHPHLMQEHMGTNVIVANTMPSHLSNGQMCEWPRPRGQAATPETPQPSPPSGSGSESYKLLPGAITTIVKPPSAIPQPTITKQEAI

[4] = molecular target: T2, Hepatocyte nuclear factor 4A (HNF4A), mouse, ectopically expressed in NIH 3T3 cells (mouse); test: co-IP; lysate (CHAPS buffer) of NIH 3T3 cells ectopically expressing HNF4A; 2.5 ug HNF4A or MLL4 antibody overnight at 4 °C, IgG as negative control, protein A/G beads, 3 washes with CHAPS buffer; western blot for UTX, ASH2L, RBBP5 or HNF4A
[5] = molecular target: T3, Hepatocyte nuclear factor 4A (HNF4A), endogenous in mouse liver (mouse (endogenous in liver)) (UniProt P49698); test: co-IP; mouse liver with endogenously expressed HNF4A; western blot; preparation of the liver lysate not described
T3 sequence: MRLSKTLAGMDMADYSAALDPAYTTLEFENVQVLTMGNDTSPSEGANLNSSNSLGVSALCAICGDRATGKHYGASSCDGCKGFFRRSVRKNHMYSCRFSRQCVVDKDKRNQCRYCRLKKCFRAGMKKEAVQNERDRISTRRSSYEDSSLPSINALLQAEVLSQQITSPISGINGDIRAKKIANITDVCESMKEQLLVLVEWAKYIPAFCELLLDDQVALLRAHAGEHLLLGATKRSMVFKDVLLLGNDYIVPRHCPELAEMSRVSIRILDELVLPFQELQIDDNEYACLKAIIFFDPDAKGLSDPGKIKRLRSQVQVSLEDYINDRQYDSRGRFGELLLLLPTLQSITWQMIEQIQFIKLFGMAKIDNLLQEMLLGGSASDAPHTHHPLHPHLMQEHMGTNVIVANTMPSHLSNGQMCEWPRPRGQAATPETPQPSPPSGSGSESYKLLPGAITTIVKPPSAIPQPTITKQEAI

[6] = molecular target: Mixed-lineage leukaemia 4 (MLL4), endogenous in NIH 3T3 cells (mouse (endogenous in NIH 3T3)) (UniProt Q6PDK2); test: proximity ligation; in situ PLA (Duolink) in fixed (4% paraformaldehyde), permeabilised NIH 3T3 cells ectopically expressing HNF4A; control cells and single-antibody negative controls
[7] = molecular target: Mixed-lineage leukaemia 4 (MLL4), endogenous in NIH 3T3 cells (mouse (endogenous in NIH 3T3)) (UniProt Q6PDK2); test: co-IP; lysate (CHAPS buffer) of NIH 3T3 cells ectopically expressing HNF4A; 2.5 ug HNF4A or MLL4 antibody overnight at 4 °C, IgG as negative control, protein A/G beads, 3 washes with CHAPS buffer; western blot for UTX, ASH2L, RBBP5 or HNF4A
[8] = molecular target: Mixed-lineage leukaemia 4 (MLL4), endogenous in HEK293T cells (human (endogenous in HEK293T)) (UniProt O14686); test: proximity ligation; in situ PLA (Duolink) in fixed (4% paraformaldehyde), permeabilised HEK293T cells ectopically expressing HNF4A

binding [1]: binds
binding [2]: binds
Molecule: ASH2L, endogenous in HEK293T cells (from UniProt Q9UBL3 1-628)

binding [3]: binds
binding [4]: binds
Molecule: ASH2L, endogenous in NIH 3T3 cells (from UniProt Q91X20 1-623)

binding [5]: binds
Molecule: ASH2L, endogenous in mouse liver (from UniProt Q91X20 1-623)

binding [1]: binds
Molecule: RBBP5, endogenous in HEK293T cells (from UniProt Q15291 1-538)

binding [4]: binds
Molecule: RBBP5, endogenous in NIH 3T3 cells (from UniProt Q8BX09 1-538)

binding [5]: binds
Molecule: RBBP5, endogenous in mouse liver (from UniProt Q8BX09 1-538)

binding [6]: binds
binding [7]: binds
B1: Hepatocyte nuclear factor 4A (HNF4A), mouse, ectopically expressed in NIH 3T3 cells (protein, UniProt P49698 1-474)
chain: MRLSKTLAGMDMADYSAALDPAYTTLEFENVQVLTMGNDTSPSEGANLNSSNSLGVSALCAICGDRATGKHYGASSCDGCKGFFRRSVRKNHMYSCRFSRQCVVDKDKRNQCRYCRLKKCFRAGMKKEAVQNERDRISTRRSSYEDSSLPSINALLQAEVLSQQITSPISGINGDIRAKKIANITDVCESMKEQLLVLVEWAKYIPAFCELLLDDQVALLRAHAGEHLLLGATKRSMVFKDVLLLGNDYIVPRHCPELAEMSRVSIRILDELVLPFQELQIDDNEYACLKAIIFFDPDAKGLSDPGKIKRLRSQVQVSLEDYINDRQYDSRGRFGELLLLLPTLQSITWQMIEQIQFIKLFGMAKIDNLLQEMLLGGSASDAPHTHHPLHPHLMQEHMGTNVIVANTMPSHLSNGQMCEWPRPRGQAATPETPQPSPPSGSGSESYKLLPGAITTIVKPPSAIPQPTITKQEAI

binding [8]: binds
B2: Hepatocyte nuclear factor 4A (HNF4A), overexpressed in HEK293T cells (protein, UniProt P49698 1-474)
chain: MRLSKTLAGMDMADYSAALDPAYTTLEFENVQVLTMGNDTSPSEGANLNSSNSLGVSALCAICGDRATGKHYGASSCDGCKGFFRRSVRKNHMYSCRFSRQCVVDKDKRNQCRYCRLKKCFRAGMKKEAVQNERDRISTRRSSYEDSSLPSINALLQAEVLSQQITSPISGINGDIRAKKIANITDVCESMKEQLLVLVEWAKYIPAFCELLLDDQVALLRAHAGEHLLLGATKRSMVFKDVLLLGNDYIVPRHCPELAEMSRVSIRILDELVLPFQELQIDDNEYACLKAIIFFDPDAKGLSDPGKIKRLRSQVQVSLEDYINDRQYDSRGRFGELLLLLPTLQSITWQMIEQIQFIKLFGMAKIDNLLQEMLLGGSASDAPHTHHPLHPHLMQEHMGTNVIVANTMPSHLSNGQMCEWPRPRGQAATPETPQPSPPSGSGSESYKLLPGAITTIVKPPSAIPQPTITKQEAI
